Data source: PubChem BioAssay AID743454 (Peter MacCallum Cancer Centre, 2014)

Assay: 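Knock-downs lowering viability or raising caspase 3/7 activity in vorinostat-treated resistant cells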 (primary screen)
System: human HCT116-VR colon cancer cells, selected for vorinostat resistance
Reagent: siRNA pool against human genes, 40 nM siRNA pool
Time to read-out: vorinostat for 24 h, read-out about 72 h after transfection
Treatment: vorinostat at 2.5 µM final
Measurement: 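Two measures, CellTiter-Fluor viability and luminescent caspase 3/7 activity, each as fold change against same-plate mock wells, mean of duplicates, then screen-wide robust z-score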
Direction: viability robust z-score: higher = more viable cells than screen typical; caspase robust z-score: higher = more caspase 3/7 activity than screen typical
Hit rule: 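Hits are knock-downs in viability class RV1/RV2 or caspase class CA1/CA2, excluding ones that killed cells in the no-drug cell-count arm; hits then retested with single siRNAs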
The whole screen tested about 18,000 reagents; shown is an unselected part. 450 of them (2.5%) count as active. 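Single biological run; no consistent viability z cut-off exists, so the class columns, not z-scores, define the calls.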

SSTR4 | viability hit class: no change; caspase hit class: no change; viability robust z-score: -1.36; caspase robust z-score: -0.4; Outcome: inactive
SSX2IP | viability hit class: no change; caspase hit class: no change; viability robust z-score: -0.94; caspase robust z-score: 0.88; Outcome: inactive
ARHGAP28 | viability hit class: no change; caspase hit class: no change; viability robust z-score: -1.4; caspase robust z-score: 0.03; Outcome: inactive
KBTBD4 | viability hit class: no change; caspase hit class: no change; viability robust z-score: -0.42; caspase robust z-score: -0.24; Outcome: inactive
CTAGE1 | viability hit class: no change; caspase hit class: no change; viability robust z-score: 0.38; caspase robust z-score: -0.14; Outcome: inactive
QTGAL | viability hit class: no change; caspase hit class: no change; viability robust z-score: -0.84; caspase robust z-score: 1.5; Outcome: inactive
IPCEF1 | viability hit class: no change; caspase hit class: no change; viability robust z-score: 0.16; caspase robust z-score: -0.12; Outcome: inactive
NFATC2IP | viability hit class: no change; caspase hit class: no change; viability robust z-score: 0.62; caspase robust z-score: 1.52; Outcome: inactive
NSUN4 | viability hit class: no change; caspase hit class: no change; viability robust z-score: 1.07; caspase robust z-score: 1.55; Outcome: inactive
ZNF526 | viability hit class: no change; caspase hit class: no change; viability robust z-score: 0.54; caspase robust z-score: 1.09; Outcome: inactive
SCN1A | viability hit class: no change; caspase hit class: no change; viability robust z-score: 0.44; caspase robust z-score: -0.68; Outcome: inactive
CLEC16A | viability hit class: no change; caspase hit class: no change; viability robust z-score: 0.27; caspase robust z-score: 4.33; Outcome: inactive
SLA | viability hit class: no change; caspase hit class: no change; viability robust z-score: -0.74; caspase robust z-score: -0.14; Outcome: inactive
NDUFA10 | viability hit class: no change; caspase hit class: no change; viability robust z-score: -1.06; caspase robust z-score: -0.96; Outcome: inactive

A portion of the results above, for reference:
SCN1A | viability hit class: no change; caspase hit class: no change; viability robust z-score: 0.44; caspase robust z-score: -0.68; Outcome: inactive
CLEC16A | viability hit class: no change; caspase hit class: no change; viability robust z-score: 0.27; caspase robust z-score: 4.33; Outcome: inactive

More results follow:
RAB11FIP3 | viability hit class: no change; caspase hit class: no change; viability robust z-score: -0.25; caspase robust z-score: 1.38; Outcome: inactive
IRX1 | viability hit class: no change; caspase hit class: no change; viability robust z-score: -0.11; caspase robust z-score: -0.55; Outcome: inactive
HECTD4 | viability hit class: no change; caspase hit class: no change; viability robust z-score: -0.32; caspase robust z-score: 0.68; Outcome: inactive
EDEM2 | viability hit class: no change; caspase hit class: no change; viability robust z-score: 0.02; caspase robust z-score: 0.11; Outcome: inactive
GOLGA8B | viability hit class: no change; caspase hit class: no change; viability robust z-score: -0.38; caspase robust z-score: -0.68; Outcome: inactive
ZNF564 | viability hit class: no change; caspase hit class: no change; viability robust z-score: 0.11; caspase robust z-score: 1.19; Outcome: inactive
FZD10 | viability hit class: no change; caspase hit class: no change; viability robust z-score: 0.6; caspase robust z-score: -0.15; Outcome: inactive
SPART | viability hit class: no change; caspase hit class: no change; viability robust z-score: 0.88; caspase robust z-score: -0.71; Outcome: inactive
TBC1D26 | viability hit class: no change; caspase hit class: no change; viability robust z-score: -0.64; caspase robust z-score: -0.68; Outcome: inactive
ADAMTS14 | viability hit class: no change; caspase hit class: no change; viability robust z-score: -1.64; caspase robust z-score: 2.02; Outcome: inactive
LRRC1 | viability hit class: no change; caspase hit class: no change; viability robust z-score: -0.12; caspase robust z-score: -0.46; Outcome: inactive
OR1A2 | viability hit class: no change; caspase hit class: no change; viability robust z-score: 1.23; caspase robust z-score: -0.37; Outcome: inactive
MAP3K15 | viability hit class: no change; caspase hit class: no change; viability robust z-score: 0.7; caspase robust z-score: -0.08; Outcome: inactive
